{"sequences": {"note": "Protein sequences, listed by entry. Tags and fused reporters are not part of them. Lines headed by an entry give the natural chain unless they say otherwise; changes in a name come on top.", "UniProt P05067": "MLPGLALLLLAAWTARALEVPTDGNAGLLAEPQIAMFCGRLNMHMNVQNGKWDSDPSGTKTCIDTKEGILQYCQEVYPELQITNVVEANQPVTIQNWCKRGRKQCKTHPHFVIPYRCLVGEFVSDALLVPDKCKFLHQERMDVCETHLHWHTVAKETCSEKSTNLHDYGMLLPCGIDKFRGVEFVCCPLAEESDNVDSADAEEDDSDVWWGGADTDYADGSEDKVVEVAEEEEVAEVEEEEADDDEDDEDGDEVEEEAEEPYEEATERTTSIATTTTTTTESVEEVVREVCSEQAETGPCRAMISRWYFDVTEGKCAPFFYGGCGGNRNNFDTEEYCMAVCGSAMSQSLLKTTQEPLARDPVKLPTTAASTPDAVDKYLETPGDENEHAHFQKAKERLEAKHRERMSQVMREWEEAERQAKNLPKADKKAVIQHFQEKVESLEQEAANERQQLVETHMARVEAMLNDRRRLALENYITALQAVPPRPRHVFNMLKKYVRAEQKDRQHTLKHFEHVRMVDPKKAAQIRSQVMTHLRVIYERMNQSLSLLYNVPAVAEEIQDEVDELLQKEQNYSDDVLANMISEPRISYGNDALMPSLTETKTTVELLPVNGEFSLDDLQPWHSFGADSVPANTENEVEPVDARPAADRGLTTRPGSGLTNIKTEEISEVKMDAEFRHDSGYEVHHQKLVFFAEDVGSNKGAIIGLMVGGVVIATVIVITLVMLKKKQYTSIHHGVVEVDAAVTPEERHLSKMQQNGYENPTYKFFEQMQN"}, "source": "paper PMC12158189", "target": "Aβ-42 (amyloid beta 1-42) (UniProt P05067)", "assay": "G-FET (VDirac shift, Ids-t)", "conditions": "full serum, smaller shift than TDN, SI caption says insulin; 5' NH2-C6; 1x PBS with 12.5 mM Mg2+, pH 7.0-7.4, room temperature; or full serum; probe immobilized on graphene FET; commercial protein; single-stranded DNA", "note": "Weaker means in comparison with the reference protein, sequence or condition of that experiment."}
{"sequence": "AGTCTAGGATTCGGCGTGGGTTAATTTTTTGCTGCCTGTGGTGTTGGGGCGGGTGCG [ss-DNA aptamer (Aβ-42 aptamer)]", "values": [{"measurement": "binding result", "value": "binds more weakly"}]}
